Values as published with doi:10.1371/journal.pone.0140310, rounded.

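Human melanoma cells were exposed to two drugs together for 72 h in 1,536-well plates and read by automated microscopy after fixing and staining. Values are the number of DAPI-stained nuclei as a percentage of the DMSO control: 100 is no effect, lower means fewer cells. Every drug was used at one fixed concentration, the higher of two screened. No replicate spread is given; individual values may be noisy.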 Only some of the drugs and lines screened are listed, without regard to their results.

Compounds and concentrations:
ENMD-2076: Cc1cc(Nc2cc(N3CCN(C)CC3)nc(/C=C/c3ccccc3)n2)n[nH]1 at 0.2 µM
selumetinib: Cn1cnc2c(F)c(Nc3ccc(Br)cc3Cl)c(C(=O)NOCCO)cc21 at 0.075 µM
darinaparsin: C[As](C)SC[C@H](NC(=O)CC[C@H](N)C(=O)O)C(=O)NCC(=O)O at 2 µM
temozolomide: Cn1nnc2c(C(N)=O)ncn2c1=O at 10 µM
BI-D1870: CC(C)CCN1c2nc(Nc3cc(F)c(O)c(F)c3)ncc2N(C)C(=O)C1C (stereo not drawn) at 1 µM
nilutamide: CC1(C)NC(=O)N(c2ccc([N+](=O)[O-])c(C(F)(F)F)c2)C1=O at 5 µM
OSI-906: C[C@]1(O)C[C@@H](c2nc(-c3ccc4ccc(-c5ccccc5)nc4c3)c3c(N)nccn32)C1 at 2 µM
vismodegib: CS(=O)(=O)c1ccc(C(=O)Nc2ccc(Cl)c(-c3ccccn3)c2)c(Cl)c1 at 5 µM
lapatinib: CS(=O)(=O)CCNCc1ccc(-c2ccc3ncnc(Nc4ccc(OCc5cccc(F)c5)c(Cl)c4)c3c2)o1 at 4 µM

Pair,C32
lapatinib + temozolomide,92.9
selumetinib + OSI-906,84.7
vismodegib + BI-D1870,101
darinaparsin + selumetinib,77.5
temozolomide + vismodegib,137
vismodegib + lapatinib,96.8
BI-D1870 + OSI-906,93.4
darinaparsin + OSI-906,89.6
nilutamide + temozolomide,92.9
ENMD-2076 + selumetinib,86.6
nilutamide + BI-D1870,102
lapatinib + selumetinib,80.3
vismodegib + ENMD-2076,123
temozolomide + BI-D1870,136
darinaparsin + temozolomide,98.9
nilutamide + ENMD-2076,81.7
ENMD-2076 + darinaparsin,99.0
lapatinib + OSI-906,87.4
temozolomide + ENMD-2076,86.8
BI-D1870 + darinaparsin,99.1
BI-D1870 + lapatinib,95.6
ENMD-2076 + BI-D1870,87.3
ENMD-2076 + OSI-906,83.5
selumetinib + vismodegib,95.7
selumetinib + BI-D1870,86.7
darinaparsin + vismodegib,98.9
darinaparsin + nilutamide,99.4
lapatinib + darinaparsin,90.5
nilutamide + vismodegib,125
selumetinib + nilutamide,80.3
nilutamide + lapatinib,77.9